# Results as given in the supplement of paper PMC8007513.
# This is one part of the list. Most values come without repeats; read them as rough.
# System: Saccharomyces cerevisiae BY4743
# Experiment: growth (OD600) with compound + IPBC relative to untreated control; higher = less growth inhibition
# Details: compound concentration: 133 uM; IPBC concentration: 0.5 ug/ml; 20 h
# Procedure: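 NMCCC compounds (133 uM) combined with IPBC (0.5 ug/ml) against Saccharomyces cerevisiae BY4743 in YPD, 96-well plates. Growth was read as OD600 at 20 h and expressed as % of the untreated control. Single pass.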
row,SMILES,growth [%]
1,CSc1nc2nc(C)cc(C(F)(F)F)n2n1 + CCCCNC(=O)OCC#CI [3-iodo-2-propynyl butylcarbamate (IPBC)],110
2,Cc1nc2nc(CCc3ccccc3)nn2c(C)c1Cl + CCCCNC(=O)OCC#CI [3-iodo-2-propynyl butylcarbamate (IPBC)],99.3
3,Cc1cc(C)nc(NS(=O)(=O)c2ccc(NC(=O)c3ccccc3OC(C)C)cc2)n1 + CCCCNC(=O)OCC#CI [3-iodo-2-propynyl butylcarbamate (IPBC)],99.8
4,CCOC(=O)Nc1ccc(C(=O)Nc2ccc(N3CCOCC3)nc2)cc1 + CCCCNC(=O)OCC#CI [3-iodo-2-propynyl butylcarbamate (IPBC)],83.6
5,Cc1cc(C(=O)COc2ncnc3c(Cl)cc(Cl)cc23)c(C)n1C + CCCCNC(=O)OCC#CI [3-iodo-2-propynyl butylcarbamate (IPBC)],101
6,COc1ccc(C(=O)Nc2ccc(OC)c(Cl)c2)c(OC)n1 + CCCCNC(=O)OCC#CI [3-iodo-2-propynyl butylcarbamate (IPBC)],84.4
7,CSc1nc(C)c(CC(=O)N2CCN(S(=O)(=O)c3ccccc3C(F)(F)F)CC2)s1 + CCCCNC(=O)OCC#CI [3-iodo-2-propynyl butylcarbamate (IPBC)],106
8,COc1ccc(OC)c(C(C)NC(=O)C2CCCCN2S(=O)(=O)c2ccc(C(C)=O)cc2)c1 (centres undefined) + CCCCNC(=O)OCC#CI [3-iodo-2-propynyl butylcarbamate (IPBC)],99
9,O=C(CCC\C1=N\[S](=O)(=O)C2=CC=CC=C2N1)OCC3=CC=CC=C3C#N + CCCCNC(=O)OCC#CI [3-iodo-2-propynyl butylcarbamate (IPBC)],103
10,CCN1CCC(N(Cc2cccs2)C(=O)Nc2cccc(C)c2C)CC1 + CCCCNC(=O)OCC#CI [3-iodo-2-propynyl butylcarbamate (IPBC)],98.9
11,CCOc1ccc(NC(C)=O)cc1S(=O)(=O)N1CC(C(=O)N(C)C)Oc2ccccc21 (centres undefined) + CCCCNC(=O)OCC#CI [3-iodo-2-propynyl butylcarbamate (IPBC)],112
12,O=C(COC(=O)CCC(=O)c1ccc2c(c1)OCCO2)Nc1ccc(Cl)cc1C(F)(F)F + CCCCNC(=O)OCC#CI [3-iodo-2-propynyl butylcarbamate (IPBC)],112
13,COC(=O)C(Nc1nccs1)(OC)C(F)(F)F (centres undefined) + CCCCNC(=O)OCC#CI [3-iodo-2-propynyl butylcarbamate (IPBC)],82.1
14,COc1ccc(Cl)cc1NC(=O)CSc1nccn1C1CCCC1 + CCCCNC(=O)OCC#CI [3-iodo-2-propynyl butylcarbamate (IPBC)],81.7
15,COc1ccccc1CCNC(=O)CSc1nnnn1Cc1ccccc1 + CCCCNC(=O)OCC#CI [3-iodo-2-propynyl butylcarbamate (IPBC)],112
16,CN(C)CCN(Cc1ccccc1)C(=O)Cn1c(=O)oc2ccccc21 + CCCCNC(=O)OCC#CI [3-iodo-2-propynyl butylcarbamate (IPBC)],76.5
17,Cl\C1=C(\CCCC1)C(=O)NC2=CC=C3OCOC3=C2 + CCCCNC(=O)OCC#CI [3-iodo-2-propynyl butylcarbamate (IPBC)],97.3
18,CN1\C=C/C(=C\C1=O)C(=O)NCC2=CC=CC=C2OC(F)(F)F + CCCCNC(=O)OCC#CI [3-iodo-2-propynyl butylcarbamate (IPBC)],100
19,CCCNC(=O)CN1\C(=C/C(=O)[N]2N=C(N=C12)C3=CC=CC=C3C)C + CCCCNC(=O)OCC#CI [3-iodo-2-propynyl butylcarbamate (IPBC)],110
20,Cc1nnc(SC(C)C(=O)c2c[nH]c3ccccc23)s1 (centres undefined) + CCCCNC(=O)OCC#CI [3-iodo-2-propynyl butylcarbamate (IPBC)],88.5

row,SMILES,growth [%]
1,CCCC(=O)Nc1cc2nn(-c3ccccc3)nc2cc1Cl + CCCCNC(=O)OCC#CI [3-iodo-2-propynyl butylcarbamate (IPBC)],84.4
2,Cc1cc(-c2csc(N)n2)c(C)n1NC(=O)c1ccccc1 + CCCCNC(=O)OCC#CI [3-iodo-2-propynyl butylcarbamate (IPBC)],64.2
3,COC(=O)\C1=C\N(NC(=O)C2=CC(=CC=C2Cl)Br)C(=O)C3=CC=CC=C13 + CCCCNC(=O)OCC#CI [3-iodo-2-propynyl butylcarbamate (IPBC)],86.3
4,CC1CCCCC1NC(=O)CCNS(=O)(=O)c1ccc2nc(O)ccc2c1 (centres undefined) + CCCCNC(=O)OCC#CI [3-iodo-2-propynyl butylcarbamate (IPBC)],94.1
5,COc1ccc(OC)c(C(C)NC(=O)CSc2nc(C)c(C)c(C)c2C#N)c1 (centres undefined) + CCCCNC(=O)OCC#CI [3-iodo-2-propynyl butylcarbamate (IPBC)],89.9
6,CC(C)(C)c1csc(NC(=O)c2csc(-c3ccsc3)n2)n1 + CCCCNC(=O)OCC#CI [3-iodo-2-propynyl butylcarbamate (IPBC)],90.5
7,CCN(CCN(C)C)C(=O)c1cc2c(s1)-c1ccc(Cl)cc1S(=O)(=O)C2 + CCCCNC(=O)OCC#CI [3-iodo-2-propynyl butylcarbamate (IPBC)],106
8,Cc1cc(S(=O)(=O)N(C)C)cc(NC(=O)c2c(-c3c(F)cccc3Cl)noc2C)c1C + CCCCNC(=O)OCC#CI [3-iodo-2-propynyl butylcarbamate (IPBC)],112
9,CCOc1ccc(CNc2nc3nc(C)c(C)c(O)n3n2)cc1 + CCCCNC(=O)OCC#CI [3-iodo-2-propynyl butylcarbamate (IPBC)],106
10,Cc1ccccc1Cn1cc(NS(=O)(=O)c2ccc(Br)s2)cn1 + CCCCNC(=O)OCC#CI [3-iodo-2-propynyl butylcarbamate (IPBC)],107
11,Cn1c(Cc2nnn(Cc3ccc(Cl)cc3Cl)n2)nnc1SCC#N + CCCCNC(=O)OCC#CI [3-iodo-2-propynyl butylcarbamate (IPBC)],100
12,Cc1cc(C)cc(OCC(=O)OC(C)C(=O)Nc2ccccc2C#N)c1 (centres undefined) + CCCCNC(=O)OCC#CI [3-iodo-2-propynyl butylcarbamate (IPBC)],86.9
13,O=C1NC(c2cc(Br)cs2)Oc2ccccc21 (centres undefined) + CCCCNC(=O)OCC#CI [3-iodo-2-propynyl butylcarbamate (IPBC)],103
14,O=C(CNC(=O)c1ccccc1)NN1S(=O)(=O)c2ccccc2S1(=O)=O + CCCCNC(=O)OCC#CI [3-iodo-2-propynyl butylcarbamate (IPBC)],103
15,CCCSc1nsc(NC(=O)COC(=O)c2occc2C)n1 + CCCCNC(=O)OCC#CI [3-iodo-2-propynyl butylcarbamate (IPBC)],83.3
16,CCOC(=O)c1c(-c2ccc(OC)cc2)csc1NC(=O)CN(C)CC(=O)N(C)C + CCCCNC(=O)OCC#CI [3-iodo-2-propynyl butylcarbamate (IPBC)],98.4
17,C[N]1N=C(C)C\2=C1C(=O)N(CC(=O)NCC3=CC=CC=C3C)\C=C2 + CCCCNC(=O)OCC#CI [3-iodo-2-propynyl butylcarbamate (IPBC)],79.6
18,CCn1c(NC(=O)c2cc(Cl)c(OC)c(OC)c2)nc2ccccc21 + CCCCNC(=O)OCC#CI [3-iodo-2-propynyl butylcarbamate (IPBC)],102
19,CCn1c(SCC(=O)O)nc2c(=O)n(C)c(=O)n(C)c21 + CCCCNC(=O)OCC#CI [3-iodo-2-propynyl butylcarbamate (IPBC)],87.8
